Patent publication US20220193133A1
These are yes or no findings as the source states them, for the method shown. Some entries that bind do so weakly or less than the wild type. For some assays here: Sequences can lack the tags named with a protein. Each block holds one binder with its values, some of them ahead of it.

How the values were obtained:
[1] = molecular target: B11 protein (humanized B11 VHH as ELISA antigen); test: periplasmic extract ELISA, absorbance 450 nm, single point
[2] = molecular target: B11 protein (humanized B11 VHH as ELISA antigen); test: periplasmic extract ELISA after phage panning
[3] = molecular target: humanized B11 VHH CAR (hyLYSO_CW_P01_B11) on Nurkat cells; test: FACS, biotinylated VHH-Fc on CAR Nurkat cells, streptavidin-APC
[4] = molecular target: humanized B11 VHH CAR (hyLYSO_CW_P01_B11) on Nurkat cells; test: FACS, VHH-Fc on CAR Nurkat cells, anti-Fc APC
[5] = molecular target: humanized B11 VHH CAR (hyLYSO_CW_P01_B11) on Nurkat cells; test: flow cytometry, VHH-Fc on CAR Nurkat cells, 3-fold dilutions 50 to 0.02 nM, anti-Fc APC, %Fc positive cells
[6] = molecular target: humanized B11 VHH CAR (hyLYSO_CW_P01_B11) on Nurkat cells; test: flow cytometry, biotinylated protein (50 nM) on CAR Nurkat cells, streptavidin-APC, % positive cells
[7] = molecular target: humanized B11 VHH CAR (hyLYSO_CW_P01_B11) on Nurkat cells; test: flow cytometry after overnight incubation of Nurkat cells with 10 nM biotinylated protein, streptavidin-APC, % positive cells
[8] = molecular target: D04-his tagged VHH (humanized D04); test: Octet (BLI) specificity analysis

binding [1]: binds | binding [2]: binds
B1: huB11_CNTY3+4_A02 anti-idiotype VHH (periplasmic extract) (VHH)
VHH: EVQLLESGGGLVQPGGSLRLSCAASGRTYTGSAMGWYRQAPGKERELVSAISTGGETYYADSVKGRFTISRDNSKNTLYLQMNSLRAEDTAVYYCAAGYVGLPYTYRPATSRRGYTYWGQGTQVTVSS

binding [1]: binds | binding [2]: binds
B3: huB11_CNTY3+4_A01 anti-idiotype VHH (periplasmic extract) (VHH)
VHH: EVQLLESGGGLVQPGGSLRLSCAASGFTFSSYSIGWYRQAPGKERELVSVISSGGSTYYADSVKGRFTISRDNSKNTLYLQMNSLRAEDTAVYYCAASDWSYSWITYTGTWRLYEYWGQGTQVTVSS

binding [8]: binds
B5: AMD88 (huD04_CNTY1_D10 anti-idiotype VHH IgG1-Fc fusion) (Fc fusion, not shown: a dimerising Fc or GST)
chain: EVQLLESGGGLVQPGGSLRLSCAASGRTSSNYVIGWYRQAPGKEREFVSAISGGGSTYYADSVKGRFTISRDNSKNTLYLQMNSLRAEDTAVYYCATRIYTARGAGDYWGQGTQVTVSS

Continued, binder first:

B2: AMD71 (huB11_CNTY3+4_A02 anti-idiotype VHH IgG1-Fc fusion) (Fc fusion, not shown: a dimerising Fc or GST)
chain: B1 VHH
binding [3]: binds | binding [4]: binds | binding [5]: binds | binding [6]: binds | binding [7]: binds

B4: AMD73 (Fc fusion)
VHH-Fc: B3 VHH
binding [5]: binds
